Results reported in PubChem BioAssay AID328 (DTP/NCI, 2004).
The list does not hold the whole screen: it gathers tests that were run many times, whatever their T/C, doses with no T/C, and many T/C values between a quarter and a half above the control. Other doses and runs of a compound stand elsewhere. T/C: endpoint of the treated group in % of that of the vehicle group. Some entries give survivors of the animals treated and no T/C: the source files T/C as zero there, which appears to mark a toxic dose or a test without result, not a measured value. Some survivor counts are full or nearly so, which does not show that the dose was tolerated: survival well below the control is almost never listed, so the zero probably covers shortened survival too. Survivors were counted at the toxicity check, usually on the fifth day, unless a day is given; later deaths do not show. Schedule codes are those of the source, read here as Q, the interval in days (D) or hours (H), X, the number of doses. For survival time, this PubChem deposit counts one and a half times the control or more as active, and values a quarter to a half above the control carry no call in these data; other NCI protocols may use other cut-offs. Some entries hold several experiments; the values are given in rising order. Some T/C values carry the count of animals alive at the toxicity check (mostly the fifth day); without a count, all were alive then.

System: BDF1 mice, P388 leukemia ip, median survival T/C
Test: NCI In Vivo Anticancer Drug Screen. Data for tumor model P388 Leukemia (intraperitoneal) in B6D2F1 (BDF1) mice
Details: T/C endpoint: median survival time, higher T/C = longer survival
Outline: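 Mice carrying the transplantable tumour receive compound or vehicle. Survival is followed in each arm, and the treated measure is divided by the vehicle measure.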

[1] = dose: 12.5 mg/kg/injection, schedule: Q01DX009 (ip), vehicle: saline
[2] = dose: 100.0 mg/kg/injection, schedule: Q01DX009 (ip), vehicle: Klucel (hydroxypropylcellulose) (HPC)
[3] = dose: 200.0 mg/kg/injection, schedule: Q01DX009 (ip), vehicle: saline with Tween-80
[4] = dose: 100.0 mg/kg/injection, schedule: Q01DX009 (ip), vehicle: saline with Tween-80
[5] = dose: 200.0 mg/kg/injection, schedule: Q04DX003 (ip), vehicle: Klucel (hydroxypropylcellulose) (HPC)
[6] = dose: 50.0 mg/kg/injection, schedule: Q01DX009 (ip), vehicle: saline with Tween-80
[7] = dose: 400.0 mg/kg/injection, schedule: Q01DX009 (ip), vehicle: saline with Tween-80
[8] = dose: 200.0 mg/kg/injection, schedule: Q01DX009 (ip), vehicle: saline

With `O=C1C(Cl)=C(Cl)C(=O)C2CC=CCC12` (stereo not drawn) the survivor count (dose: 12.5 mg/kg/injection, schedule: Q01DX001 (ip), vehicle: saline with Tween-80) was 1 of 6.
With `CNC(=O)c1nc(C)c(C)[nH]c1=O` the survivor count (dose: 100.0 mg/kg/injection, schedule: Q04DX003 (ip), vehicle: water) was 6 of 6, the survivor count (dose: 200.0 mg/kg/injection, schedule: Q04DX003 (ip), vehicle: water) was 6 of 6 and the survivor count (dose: 400.0 mg/kg/injection, schedule: Q01DX009 (ip), vehicle: water) was 2 of 6.
With `COc1c2c(cc3oc4ccccc4c(=O)c13)CCCC2=O` the survivor count (dose: 100.0 mg/kg/injection, schedule: Q01DX005 (ip), vehicle: Klucel (hydroxypropylcellulose) (HPC)) was 5 of 5.
In the case of `O=S1(=O)CC(Cl)C(Cl)C1` (stereo not drawn), the survivor count (dose: 6.25 mg/kg/injection, schedule: Q01DX009 (ip), vehicle: saline) is reported as 6 of 6, the survivor count [1] is reported as 6 of 6 and the survivor count (dose: 40.0 mg/kg/injection, schedule: Q04DX003 (ip), vehicle: saline) is reported as 1 of 6. For the same compound, the survivor count (dose: 60.0 mg/kg/injection, schedule: Q04DX003 (ip), vehicle: saline) was 2 of 6.
In the case of `O=NN(CCCl)C(=O)Nc1cc2c3ccccc3ccc2c2ccccc12`, the T/C [2] is reported as 137 % of control [5 of 6 alive], the T/C (dose: 200.0 mg/kg/injection, schedule: Q01DX009 (ip), vehicle: Klucel (hydroxypropylcellulose) (HPC)) is reported as 132 % of control and the T/C (dose: 400.0 mg/kg/injection, schedule: Q01DX009 (ip), vehicle: Klucel (hydroxypropylcellulose) (HPC)) is reported as 129 % of control [5 of 6 alive].
For `CNC(=O)O/N=C(\CN=[N+]=[N-])C(C)(C)C`, the T/C (dose: 0.2 mg/kg/injection, schedule: Q01DX009 (ip), vehicle: saline) was 125 % of control, the T/C (dose: 0.39 mg/kg/injection, schedule: Q01DX009 (ip), vehicle: saline) was 127 % of control and the survivor count (dose: 0.78 mg/kg/injection, schedule: Q01DX009 (ip), vehicle: saline) was 6 of 6. The survivor count (dose: 1.56 mg/kg/injection, schedule: Q01DX009 (ip), vehicle: saline) was 0 of 6.
In the case of `CC(C)CNS(=O)(=O)c1ncnc2nc[nH]c12`, the survivor count [3] is reported as 1 of 6.
In the case of `COC(=O)C1c2cc3c(c(O)c2CCC1(C)O)C(=O)c1c(O)cc2c(c1C3=O)OC1OC2(C)C(O)C(N(C)C)C1O` (stereo not drawn), the T/C (dose: 16.0 mg/kg/injection, schedule: Q01DX009 (ip), vehicle: saline) is reported as 140 % of control, the T/C (dose: 25.0 mg/kg/injection, schedule: Q01DX010 (ip), vehicle: saline) is reported as 125 % of control and the T/C (dose: 50.0 mg/kg/injection, schedule: Q01DX010 (ip), vehicle: saline) is reported as 130 % of control. For the same compound, the T/C (dose: 100.0 mg/kg/injection, schedule: Q01DX010 (ip), vehicle: saline) was 130 % of control.
With `CCN(CC)CCOc1ccc(C2=C(c3ccccc3)CCc3cc(OC)ccc32)cc1` the survivor count [4] was 4 of 6 and the survivor count [3] was 2 of 6.
`[N-]=[N+]=C1C(=O)NN=C1c1ccccc1` was tested, and the survivor count [5] was 2 of 6.
For `CCCC(O)Cc1c[nH]c(=O)[nH]c1=O` (stereo not drawn), the survivor count [6] was 5 of 6, the survivor count [4] was 4 of 6 and the survivor count [3] was 2 of 6.
In the case of `CCCCCCCC[N+](CC)(CC)CCOC(=O)C(C1CCCC1)C1CCCC1`, the survivor count (dose: 5.6 mg/kg/injection, schedule: Q01DX009 (ip), vehicle: saline) is reported as 3 of 6, the survivor count (dose: 8.1 mg/kg/injection, schedule: Q04DX003 (ip), vehicle: saline) is reported as 5 of 6 and the survivor count (dose: 8.4 mg/kg/injection, schedule: Q01DX009 (ip), vehicle: saline) is reported as 1 of 6. For the same compound, the survivor count (dose: 12.0 mg/kg/injection, schedule: Q04DX003 (ip), vehicle: saline) was 2 of 6.
For `C[N+]1(C)N=C([O-])N(c2ccc([N+](=O)[O-])cc2)C1=O`, the survivor count [3] was 5 of 6.
In the case of `COc1cc2ccc3c[n+]4ccccc4cc3c2cc1OC`, the T/C [2] is reported as 129 % of control.
With `O=C(c1ccc(Cl)cc1)n1c(Cl)c(/C=N\Nc2cccc([N+](=O)[O-])c2)c2ccccc21` the survivor count (dose: 100.0 mg/kg/injection, schedule: Q01DX001 (ip), vehicle: Klucel (hydroxypropylcellulose) (HPC)) was 6 of 6 and the survivor count (dose: 200.0 mg/kg/injection, schedule: Q01DX001 (ip), vehicle: Klucel (hydroxypropylcellulose) (HPC)) was 6 of 6.
With `CCOc1nc(S(=O)(=O)CC)ncc1C` the survivor count [6] was 6 of 6, the survivor count [4] was 5 of 6 and the survivor count [3] was 6 of 6. The survivor count (dose: 300.0 mg/kg/injection, schedule: Q01DX009 (ip), vehicle: saline with Tween-80) was 5 of 6 and the survivor count [7] was 3 of 6.
In the case of `CC1=NN(c2ccc(S(=O)(=O)O)cc2)C(=O)/C1=C/c1ccc(Cl)cc1`, the survivor count [8] is reported as 3 of 6 and the survivor count (dose: 400.0 mg/kg/injection, schedule: Q01DX009 (ip), vehicle: saline) is reported as 5 of 6.
`Cc1cccc2c1CC(C(C)C)C2` (stereo not drawn) was tested, and the survivor count [7] was 0 of 6.
For `CCCCCCCC[N+]12CC[N+](CCCCCCCC)(CC1)CC2`, the survivor count [1] was 3 of 6, the survivor count (dose: 50.0 mg/kg/injection, schedule: Q01DX009 (ip), vehicle: saline) was 0 of 6 and the survivor count (dose: 100.0 mg/kg/injection, schedule: Q01DX009 (ip), vehicle: saline) was 0 of 6. The survivor count [8] was 0 of 6.
`Nc1nc(N)c2cc(N3CCCC3c3ccc(Cl)c(Cl)c3)ccc2n1` (stereo not drawn) was tested, and the survivor count (dose: 12.5 mg/kg/injection, schedule: Q01DX009 (ip), vehicle: water) was 4 of 6 and the survivor count (dose: 25.0 mg/kg/injection, schedule: Q01DX009 (ip), vehicle: water) was 0 of 6.
`C=C1C(=O)OC2C1C(OC(=O)/C(C)=C/C)CC(O)(CCl)C1C(OC(C)=O)C=C(C)C21O` (stereo not drawn) was tested, and the T/C (dose: 12.5 mg/kg/injection, schedule: Q01DX010 (ip), vehicle: saline) was 133 % of control and the T/C (dose: 200.0 mg/kg/injection, schedule: Q01DX010 (ip), vehicle: saline) was 144 % of control.
With `CC(C)CCNc1ccc(NCCC(C)C)cc1` the survivor count (dose: 37.5 mg/kg/injection, schedule: Q01DX009 (ip), vehicle: alcohol) was 4 of 6, the survivor count (dose: 55.0 mg/kg/injection, schedule: Q04DX003 (ip), vehicle: alcohol) was 2 of 6 and the survivor count (dose: 75.0 mg/kg/injection, schedule: Q01DX009 (ip), vehicle: alcohol) was 0 of 6.
With `CN=C(N)c1ccc(NC(=O)c2ccc(C(=O)Nc3ccc(C(N)=NC)cc3)c(N)c2)cc1` the T/C (dose: 5.0 mg/kg/injection, schedule: Q04DX003 (ip), vehicle: Klucel (hydroxypropylcellulose) (HPC)) was 130, 135, 145 % of control, the T/C (dose: 9.0 mg/kg/injection, schedule: Q01DX009 (ip), vehicle: Klucel (hydroxypropylcellulose) (HPC)) was 131 % of control and the survivor count (dose: 12.5 mg/kg/injection, schedule: Q01DX009 (ip), vehicle: Klucel (hydroxypropylcellulose) (HPC)) was 6 of 6. For the same compound, the survivor count (dose: 25.0 mg/kg/injection, schedule: Q01DX009 (ip), vehicle: Klucel (hydroxypropylcellulose) (HPC)) was 1 of 6, the survivor count (dose: 25.0 mg/kg/injection, schedule: Q04DX003 (ip), vehicle: Klucel (hydroxypropylcellulose) (HPC)) was 5 of 6 and the survivor count (dose: 50.0 mg/kg/injection, schedule: Q04DX003 (ip), vehicle: Klucel (hydroxypropylcellulose) (HPC)) was 0 of 6. For the same compound, the survivor count (dose: 100.0 mg/kg/injection, schedule: Q04DX003 (ip), vehicle: Klucel (hydroxypropylcellulose) (HPC)) was 0 of 6, the survivor count [5] was 0 of 6 and the survivor count (dose: 400.0 mg/kg/injection, schedule: Q04DX003 (ip), vehicle: Klucel (hydroxypropylcellulose) (HPC)) was 0 of 6.
`C/C(=N\N=C(N)N)c1ccc(NC(=O)Nc2ccc(/C(C)=N/N=C(N)N)cc2)cc1` was tested, and the T/C (dose: 2.3 mg/kg/injection, schedule: Q04DX003 (ip), vehicle: saline) was 125 % of control and the T/C (dose: 3.6 mg/kg/injection, schedule: Q04DX003 (ip), vehicle: saline) was 131 % of control.
With `O=C(O)C(CSC(c1ccccc1)(c1ccccc1)c1ccccc1)N=Cc1cccs1` (stereo not drawn) the T/C (dose: 4.8 mg/kg/injection, schedule: Q01DX009 (ip), vehicle: saline) was 145 % of control and the survivor count (dose: 150.0 mg/kg/injection, schedule: Q01DX009 (ip), vehicle: saline) was 4 of 6.
`O=[N+]([O-])c1ccc(SCc2ccccc2)c2nonc12` was tested, and the T/C (dose: 25.0 mg/kg/injection, schedule: Q01DX009 (ip), vehicle: saline with Tween-80) was 131 % of control.
